Measured values: the supplement of paper PMC10849652
The other results are listed elsewhere or left out.

Chains of the proteins cited; added tags and fusions are not shown. Lines headed by an entry give the natural chain unless they say otherwise; changes in a name come on top.
UniProt Q9NYJ1, whole entry, looked up: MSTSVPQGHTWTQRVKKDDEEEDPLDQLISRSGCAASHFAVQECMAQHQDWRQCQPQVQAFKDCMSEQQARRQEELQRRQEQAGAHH
UniProt Q9BQT9: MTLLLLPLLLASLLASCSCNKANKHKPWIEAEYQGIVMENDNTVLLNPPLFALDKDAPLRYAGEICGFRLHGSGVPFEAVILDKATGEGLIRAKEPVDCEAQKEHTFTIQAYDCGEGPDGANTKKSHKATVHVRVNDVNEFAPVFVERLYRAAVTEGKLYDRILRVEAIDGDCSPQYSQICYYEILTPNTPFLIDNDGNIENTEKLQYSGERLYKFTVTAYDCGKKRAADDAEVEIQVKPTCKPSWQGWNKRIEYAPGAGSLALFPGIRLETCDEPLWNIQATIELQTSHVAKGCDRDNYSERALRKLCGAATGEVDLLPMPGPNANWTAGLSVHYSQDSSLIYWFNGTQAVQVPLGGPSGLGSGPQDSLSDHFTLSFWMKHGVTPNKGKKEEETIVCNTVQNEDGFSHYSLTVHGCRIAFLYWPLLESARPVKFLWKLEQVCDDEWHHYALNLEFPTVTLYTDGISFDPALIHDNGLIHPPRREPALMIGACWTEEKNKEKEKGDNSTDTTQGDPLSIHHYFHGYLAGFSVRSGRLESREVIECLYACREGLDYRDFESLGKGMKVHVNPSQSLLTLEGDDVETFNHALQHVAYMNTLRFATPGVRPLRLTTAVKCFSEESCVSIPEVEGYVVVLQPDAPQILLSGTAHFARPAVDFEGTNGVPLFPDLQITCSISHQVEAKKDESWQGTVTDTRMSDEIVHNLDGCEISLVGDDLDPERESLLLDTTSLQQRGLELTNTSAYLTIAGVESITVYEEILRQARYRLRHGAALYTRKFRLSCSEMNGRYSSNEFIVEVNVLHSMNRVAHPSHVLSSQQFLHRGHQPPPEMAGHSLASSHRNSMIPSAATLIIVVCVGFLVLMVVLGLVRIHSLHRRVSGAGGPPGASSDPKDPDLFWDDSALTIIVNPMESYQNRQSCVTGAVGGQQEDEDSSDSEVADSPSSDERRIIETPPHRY
UniProt Q9Y3D0: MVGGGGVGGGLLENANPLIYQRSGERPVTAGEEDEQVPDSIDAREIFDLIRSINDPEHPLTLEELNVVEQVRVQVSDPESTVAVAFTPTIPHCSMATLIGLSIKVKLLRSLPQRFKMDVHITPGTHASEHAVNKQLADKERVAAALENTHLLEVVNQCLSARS
UniProt Q8WUX9: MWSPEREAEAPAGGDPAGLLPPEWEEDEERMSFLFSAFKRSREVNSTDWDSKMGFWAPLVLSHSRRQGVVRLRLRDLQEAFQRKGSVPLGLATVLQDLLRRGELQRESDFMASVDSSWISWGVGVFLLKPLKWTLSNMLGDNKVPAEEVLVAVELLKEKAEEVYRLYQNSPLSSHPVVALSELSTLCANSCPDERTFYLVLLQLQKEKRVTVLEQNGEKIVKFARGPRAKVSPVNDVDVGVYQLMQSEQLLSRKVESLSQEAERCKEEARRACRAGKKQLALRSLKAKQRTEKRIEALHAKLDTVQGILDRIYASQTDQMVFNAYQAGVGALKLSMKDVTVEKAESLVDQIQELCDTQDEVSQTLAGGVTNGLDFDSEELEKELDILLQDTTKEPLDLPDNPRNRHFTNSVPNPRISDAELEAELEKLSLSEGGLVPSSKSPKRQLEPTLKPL
UniProt O43529: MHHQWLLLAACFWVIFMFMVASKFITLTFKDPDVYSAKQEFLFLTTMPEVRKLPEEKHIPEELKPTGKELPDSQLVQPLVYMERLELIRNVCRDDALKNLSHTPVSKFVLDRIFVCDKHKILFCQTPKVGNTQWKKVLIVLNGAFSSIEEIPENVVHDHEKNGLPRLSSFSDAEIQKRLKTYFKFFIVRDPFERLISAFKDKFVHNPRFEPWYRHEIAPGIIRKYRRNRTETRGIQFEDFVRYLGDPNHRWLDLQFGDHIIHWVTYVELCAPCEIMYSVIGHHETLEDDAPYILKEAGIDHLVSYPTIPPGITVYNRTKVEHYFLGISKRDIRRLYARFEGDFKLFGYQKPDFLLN
UniProt P62633: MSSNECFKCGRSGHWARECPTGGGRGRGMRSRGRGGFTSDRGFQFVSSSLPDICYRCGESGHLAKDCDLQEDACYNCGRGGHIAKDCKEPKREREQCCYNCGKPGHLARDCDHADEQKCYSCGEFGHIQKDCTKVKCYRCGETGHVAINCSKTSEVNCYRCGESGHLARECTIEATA
UniProt P56277: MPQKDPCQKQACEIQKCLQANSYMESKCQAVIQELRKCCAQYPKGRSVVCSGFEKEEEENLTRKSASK
UniProt P33552, whole entry, looked up: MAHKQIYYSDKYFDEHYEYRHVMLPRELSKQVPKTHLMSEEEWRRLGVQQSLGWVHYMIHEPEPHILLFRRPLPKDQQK
UniProt O15111: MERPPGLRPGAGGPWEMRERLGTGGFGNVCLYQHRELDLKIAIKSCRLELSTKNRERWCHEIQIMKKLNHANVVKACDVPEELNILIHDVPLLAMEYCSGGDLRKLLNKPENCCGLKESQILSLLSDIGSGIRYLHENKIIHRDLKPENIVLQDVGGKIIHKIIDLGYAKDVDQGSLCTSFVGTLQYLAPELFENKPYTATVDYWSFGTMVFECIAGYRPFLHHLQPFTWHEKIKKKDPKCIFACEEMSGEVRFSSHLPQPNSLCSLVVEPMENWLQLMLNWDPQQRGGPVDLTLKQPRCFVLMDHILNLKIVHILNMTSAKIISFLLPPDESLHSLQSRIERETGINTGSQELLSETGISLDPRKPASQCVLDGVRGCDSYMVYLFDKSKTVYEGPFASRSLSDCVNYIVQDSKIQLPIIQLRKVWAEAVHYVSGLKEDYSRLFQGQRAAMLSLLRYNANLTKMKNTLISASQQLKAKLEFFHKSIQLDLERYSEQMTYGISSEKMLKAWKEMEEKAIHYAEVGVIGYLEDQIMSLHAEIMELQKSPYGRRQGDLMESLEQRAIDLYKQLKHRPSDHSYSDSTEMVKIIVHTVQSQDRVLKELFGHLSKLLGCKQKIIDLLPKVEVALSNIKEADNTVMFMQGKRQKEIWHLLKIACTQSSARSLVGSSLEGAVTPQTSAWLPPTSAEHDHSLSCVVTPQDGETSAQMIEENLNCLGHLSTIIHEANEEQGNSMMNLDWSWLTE
UniProt Q9H9E3: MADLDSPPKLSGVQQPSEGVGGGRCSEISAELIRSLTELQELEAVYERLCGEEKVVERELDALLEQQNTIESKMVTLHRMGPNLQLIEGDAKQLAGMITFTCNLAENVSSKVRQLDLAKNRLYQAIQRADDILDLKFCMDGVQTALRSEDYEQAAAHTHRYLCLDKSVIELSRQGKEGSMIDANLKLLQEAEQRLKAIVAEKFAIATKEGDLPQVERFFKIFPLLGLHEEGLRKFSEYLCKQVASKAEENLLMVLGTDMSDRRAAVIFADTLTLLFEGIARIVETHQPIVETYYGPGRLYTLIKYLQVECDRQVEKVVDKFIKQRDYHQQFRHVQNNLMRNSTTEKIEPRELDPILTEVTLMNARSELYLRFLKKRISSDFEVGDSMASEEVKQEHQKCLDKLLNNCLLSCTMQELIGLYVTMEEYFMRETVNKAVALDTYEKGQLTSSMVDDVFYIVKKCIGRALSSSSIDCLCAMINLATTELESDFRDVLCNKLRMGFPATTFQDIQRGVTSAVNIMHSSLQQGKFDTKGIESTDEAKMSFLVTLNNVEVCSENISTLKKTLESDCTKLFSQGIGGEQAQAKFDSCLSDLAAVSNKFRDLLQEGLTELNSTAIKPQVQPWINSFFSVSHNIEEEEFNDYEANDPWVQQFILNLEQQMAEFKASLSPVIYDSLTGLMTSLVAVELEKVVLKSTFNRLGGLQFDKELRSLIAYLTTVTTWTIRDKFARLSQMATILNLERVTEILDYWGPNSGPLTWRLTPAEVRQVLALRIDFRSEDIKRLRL
UniProt P51795: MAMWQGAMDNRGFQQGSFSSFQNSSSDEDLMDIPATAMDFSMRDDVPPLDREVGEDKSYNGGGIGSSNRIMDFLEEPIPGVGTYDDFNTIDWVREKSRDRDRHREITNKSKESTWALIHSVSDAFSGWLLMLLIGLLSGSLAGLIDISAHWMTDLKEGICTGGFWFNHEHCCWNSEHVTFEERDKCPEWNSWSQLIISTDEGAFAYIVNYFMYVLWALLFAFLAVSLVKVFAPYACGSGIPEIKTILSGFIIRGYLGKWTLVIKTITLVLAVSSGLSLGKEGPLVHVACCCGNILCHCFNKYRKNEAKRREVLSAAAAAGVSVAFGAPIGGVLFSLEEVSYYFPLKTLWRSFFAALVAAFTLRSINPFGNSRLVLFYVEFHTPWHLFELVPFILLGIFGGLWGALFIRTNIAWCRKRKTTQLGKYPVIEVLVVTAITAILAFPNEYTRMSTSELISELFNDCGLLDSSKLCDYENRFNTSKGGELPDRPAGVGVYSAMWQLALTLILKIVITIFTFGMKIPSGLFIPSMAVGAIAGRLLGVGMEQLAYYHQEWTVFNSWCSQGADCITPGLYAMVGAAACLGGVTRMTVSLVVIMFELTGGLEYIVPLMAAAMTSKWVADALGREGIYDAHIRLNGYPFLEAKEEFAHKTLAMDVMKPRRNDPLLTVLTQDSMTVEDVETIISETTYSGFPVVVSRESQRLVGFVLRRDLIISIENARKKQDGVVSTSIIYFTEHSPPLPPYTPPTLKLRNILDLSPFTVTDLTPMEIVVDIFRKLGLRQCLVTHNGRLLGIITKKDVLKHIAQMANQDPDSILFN
UniProt Q9Y3Y2: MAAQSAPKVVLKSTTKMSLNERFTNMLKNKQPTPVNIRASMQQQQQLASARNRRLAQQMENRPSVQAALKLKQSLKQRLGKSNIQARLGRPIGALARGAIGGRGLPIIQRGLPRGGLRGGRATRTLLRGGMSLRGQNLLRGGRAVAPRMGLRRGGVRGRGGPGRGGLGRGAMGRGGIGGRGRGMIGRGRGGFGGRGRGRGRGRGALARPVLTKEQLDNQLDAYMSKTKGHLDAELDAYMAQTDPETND
UniProt Q8N2M8: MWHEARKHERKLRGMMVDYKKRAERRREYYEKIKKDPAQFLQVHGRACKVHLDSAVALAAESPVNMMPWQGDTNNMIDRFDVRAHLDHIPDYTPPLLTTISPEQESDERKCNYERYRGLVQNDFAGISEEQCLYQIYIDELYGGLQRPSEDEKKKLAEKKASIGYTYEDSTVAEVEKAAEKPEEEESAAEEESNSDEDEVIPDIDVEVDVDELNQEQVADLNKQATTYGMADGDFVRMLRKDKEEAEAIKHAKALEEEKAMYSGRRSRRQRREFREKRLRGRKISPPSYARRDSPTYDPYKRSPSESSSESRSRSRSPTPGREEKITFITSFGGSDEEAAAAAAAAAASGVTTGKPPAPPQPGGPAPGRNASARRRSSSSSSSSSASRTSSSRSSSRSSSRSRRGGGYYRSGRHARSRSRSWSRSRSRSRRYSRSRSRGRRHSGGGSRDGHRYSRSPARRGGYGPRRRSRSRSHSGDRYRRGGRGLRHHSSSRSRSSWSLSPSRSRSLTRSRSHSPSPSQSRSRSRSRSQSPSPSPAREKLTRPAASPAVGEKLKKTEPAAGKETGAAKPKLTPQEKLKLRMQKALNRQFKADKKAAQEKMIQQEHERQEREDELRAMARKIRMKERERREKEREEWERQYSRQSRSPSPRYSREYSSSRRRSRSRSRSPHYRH
UniProt Q86WW8: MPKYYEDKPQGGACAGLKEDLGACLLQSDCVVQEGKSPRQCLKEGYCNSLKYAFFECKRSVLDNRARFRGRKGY
UniProt P51911: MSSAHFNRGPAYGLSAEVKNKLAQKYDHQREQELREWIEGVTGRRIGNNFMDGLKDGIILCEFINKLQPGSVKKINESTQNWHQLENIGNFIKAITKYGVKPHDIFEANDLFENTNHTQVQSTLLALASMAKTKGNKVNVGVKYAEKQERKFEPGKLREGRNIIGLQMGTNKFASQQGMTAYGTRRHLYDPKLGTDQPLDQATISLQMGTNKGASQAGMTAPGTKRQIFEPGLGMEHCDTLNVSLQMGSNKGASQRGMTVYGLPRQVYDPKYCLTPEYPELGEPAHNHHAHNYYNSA
UniProt Q96MW5: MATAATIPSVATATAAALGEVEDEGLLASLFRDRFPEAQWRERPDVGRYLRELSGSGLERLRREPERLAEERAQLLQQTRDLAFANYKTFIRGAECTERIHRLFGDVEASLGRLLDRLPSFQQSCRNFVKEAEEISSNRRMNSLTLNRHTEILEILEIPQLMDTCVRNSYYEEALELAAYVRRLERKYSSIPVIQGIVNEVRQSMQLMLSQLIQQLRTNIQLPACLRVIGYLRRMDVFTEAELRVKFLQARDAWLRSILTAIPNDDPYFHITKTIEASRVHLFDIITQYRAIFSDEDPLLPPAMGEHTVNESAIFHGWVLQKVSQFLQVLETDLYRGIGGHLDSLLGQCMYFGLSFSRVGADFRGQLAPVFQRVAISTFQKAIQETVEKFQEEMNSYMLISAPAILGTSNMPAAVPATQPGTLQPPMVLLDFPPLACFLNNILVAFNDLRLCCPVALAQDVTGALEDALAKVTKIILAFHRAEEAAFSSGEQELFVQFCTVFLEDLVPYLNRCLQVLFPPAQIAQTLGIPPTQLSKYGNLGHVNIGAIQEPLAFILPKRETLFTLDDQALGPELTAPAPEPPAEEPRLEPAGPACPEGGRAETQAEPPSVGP

Tests used:
Experiment in all cases: log2 fold change, soluble protein after heating vs DMSO (PISA); higher = thermal stabilisation; K562 cells, 10 uM, 30 min; active = over 0.2 and 3.5 SD of the protein, either way, in both replicates (recomputed)
[1] = compound: C1=CC=C(C=C1)[C@H](COC2=CC3=C(C=C2)NC(=O)N3)NC(=O)C4=CC=CN(C4=O)CC5=CC(=C(C=C5)F)F
Procedure, shortened: (§1)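 Soluble protein was quantified by TMTpro 16plex LC-MS/MS after channel sums were equalised. It was obtained as the supernatant after 21,000xg for 90 min from pooled aliquots of K562 cells (2×10^6 cells/mL, 10 μM compound, 30 min) heated for 3 min across 48°C-58°C and extracted in PBS with 0.5% NP-40 at 4°C. Thermal stability values are relative to control samples and come from duplicates. They are given as log2 fold changes.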

[2] = compound: CC1=C(SC2=C1C(=N[C@H](C3=NN=C(N32)C)CC(=O)N)C4=CC=C(C=C4)Cl)C
Procedure, shortened: as §1

[3] = compound: c1ccc([C@@H]2C[C@H]2NC2CCNCC2)cc1
Procedure, shortened: as §1

[4] = compound: Cc1sc2c(c1C)C(c1ccc(Cl)cc1)=N[C@@H](CC(=O)OC(C)(C)C)c1nnc(C)n1-2
Procedure, shortened: as §1

[5] = compound: CC1=C2C(=CC=C1)N=C(N(C2=O)C3=CC=CC=C3C)CN4C=NC5=C(N=CN=C54)N
Procedure, shortened: as §1

Measured: log2 fold change

COA4 isoform 2 (UniProt Q9NYJ1)
inactive: [1] 0 | [2] 0.063 | [3] 0.034

COL12A1 (UniProt Q99715)
inactive: [4] -0.034

CMTM4 (UniProt Q8IZR5)
inactive: [1] 0.031 | [5] 0.081 | [4] -0.206

CLSTN3 isoform 2 (UniProt Q9BQT9)
inactive: [5] 0.008

CNEP1R1 isoform 2 (UniProt Q8N9A8)
inactive: [2] 0.054 | [5] 0.098 | [4] 0.043 | [3] 0.114

COG6 (UniProt Q9Y2V7)
inactive: [2] -0.241 | [5] -0.044 | [4] 0.157 | [3] 0.069

Fetched one by one from the entries so far, 2 records:
COA4 isoform 2 (UniProt Q9NYJ1)
inactive: [1] 0 | [2] 0.063 | [3] 0.034

CNEP1R1 isoform 2 (UniProt Q8N9A8)
inactive: [2] 0.054 | [5] 0.098 | [4] 0.043 | [3] 0.114

The results go on:

CIAO2B (UniProt Q9Y3D0)
inactive: [1] -0.018 | [2] -0.221 | [3] 0.267

CLIC6 (UniProt Q96NY7)
inactive: [1] -0.063 | [5] 0.137 | [4] 0.097

CHMP7 (UniProt Q8WUX9)
inactive: [1] -0.02 | [2] 0.009 | [4] -0.077 | [3] 0.107

COL14A1 (UniProt Q05707)
inactive: [5] -0.128 | [4] 0.124

CLCNKB (UniProt P51801)
inactive: [2] -0.019 | [5] -0.156 | [3] 0.101

CNTRL (UniProt Q7Z7A1)
inactive: [2] -0.136 | [5] 0.228 | [4] 0.029 | [3] 0.046

CHURC1-FNTB (UniProt B4DL54)
inactive: [1] -0.007 | [5] 0.005 | [4] -0.009

CHST10 (UniProt O43529)
inactive: [1] 0.004 | [2] -0.064 | [4] -0.052 | [3] 0.044

COG2 (UniProt Q14746)
inactive: [2] 0.063 | [4] 0.141 | [3] -0.004

CLP1 (UniProt Q92989)
inactive: [1] -0.075 | [2] 0.047 | [4] 0.141 | [3] 0.047

CNBP (UniProt P62633)
inactive: [1] 0.028 | [2] -0.028 | [3] 0.085

CMC4 (UniProt P56277)
inactive: [2] 0.019 | [3] -0.013

CKS2 (UniProt P33552)
inactive: [1] -0.084 | [4] -0.08

CHST2 (UniProt Q9Y4C5)
inactive: [1] -0.033 | [2] 0.046 | [4] -0.025 | [3] 0.006

CHUK (UniProt O15111)
inactive: [2] -0.104 | [5] -0.137 | [4] 0.057 | [3] -0.093

CLEC11A (UniProt Q9Y240)
inactive: [4] 0.015

COG4 (UniProt Q9H9E3)
inactive: [2] -0.246 | [5] -0.169 | [4] 0.102 | [3] -0.039

CLCN5 isoform 2 (UniProt P51795)
inactive: [2] 0.028 | [5] -0.023 | [4] 0.024 | [3] -0.053

CMYA5 (UniProt Q8N3K9)
inactive: [1] 0.053 | [2] 0.121 | [4] 0.216 | [3] 0.187

CHPT1 (UniProt Q8WUD6)
inactive: [2] 0.003 | [4] -0.198 | [3] 0.11

CHTOP isoform 3 (UniProt Q9Y3Y2)
inactive: [2] -0.297 | [5] -0.122 | [4] 0.036 | [3] -0.052

CLASRP (UniProt Q8N2M8)
inactive: [1] -0.081 | [2] 0.136 | [3] 0.14

COIL (UniProt P38432)
inactive: [1] -0.178 | [4] 0.108

CLASP2 (UniProt O75122)
inactive: [1] 0.059 | [2] 0.117 | [3] -0.222

COG7 (UniProt P83436)
inactive: [2] -0.16 | [5] -0.074 | [3] -0.075

COA5 (UniProt Q86WW8)
inactive: [2] -0.037 | [5] -0.038 | [3] -0.004

CNN1 (UniProt P51911)
inactive: [2] 0.228 | [5] -0.063 | [4] -0.004 | [3] 0.156

COG8 (UniProt Q96MW5)
inactive: [2] -0.029 | [3] 0

COG1 (UniProt Q8WTW3)
inactive: [2] -0.176 | [4] 0.378 | [3] -0.04

CLN5 (UniProt O75503)
inactive: [1] -0.003 | [2] -0.007 | [4] 0.057 | [3] -0.296

CKAP2 (UniProt Q8WWK9)
inactive: [2] -0.266 | [4] 0.116 | [3] 0.122
